Measurements as given in article PMC9065177 (Theranostics, 2022).

Assay: general procedure: Fmoc solid-phase peptide synthesis; Rink Amide resin (loading 0.34 mmol/g); DIC/Oxyma pure
Details: whole synthesis, scale of the general procedure 735 mg resin

| Substance | isolated yield [%] |
| --- | --- |
| PEPTIDE1{[ac].I.N.[S5].K.A.L.[S5].A.L.A.K.K.I.L.[am]}$PEPTIDE1,PEPTIDE1,4:R3-8:R3$$$V2.0 | 10.78 |
| PEPTIDE1{[ac].I.N.L.K.[S5].L.A.A.[S5].A.K.K.I.L.[am]}$PEPTIDE1,PEPTIDE1,6:R3-10:R3$$$V2.0 | 21.18 |
| PEPTIDE1{[ac].I.N.L.[S5].A.L.A.[S5].L.A.K.K.I.L.[am]}$PEPTIDE1,PEPTIDE1,5:R3-9:R3$$$V2.0 | 2.55 |
| FITC-Cys-MMP-2-aPD-L1 | 12.15 |
| PEPTIDE1{[ac].I.N.L.K.A.L.A.[S5].L.A.K.[S5].I.L.[am]}$PEPTIDE1,PEPTIDE1,9:R3-13:R3$$$V2.0 | 17.82 |
| Cys-MMP-2-aPD-L1 | 21.88 |
| PEPTIDE1{[ac].I.N.L.K.A.L.A.A.[S5].A.K.K.[S5].L.[am]}$PEPTIDE1,PEPTIDE1,10:R3-14:R3$$$V2.0 | 19.17 |
| PEPTIDE1{[ac].[S5].N.L.K.[S5].L.A.A.L.A.K.K.I.L.[am]}$PEPTIDE1,PEPTIDE1,2:R3-6:R3$$$V2.0 | 10.59 |
| PEPTIDE1{[ac].I.N.L.K.A.[S5].A.A.L.[S5].K.K.I.L.[am]}$PEPTIDE1,PEPTIDE1,7:R3-11:R3$$$V2.0 | 32.03 |
| PEPTIDE1{[ac].I.N.L.K.A.L.[S5].A.L.A.[S5].K.I.L.[am]}$PEPTIDE1,PEPTIDE1,8:R3-12:R3$$$V2.0 | 20.37 |
| PEPTIDE1{[ac].I.[S5].L.K.A.[S5].A.A.L.A.K.K.I.L.[am]}$PEPTIDE1,PEPTIDE1,3:R3-7:R3$$$V2.0 | 14.00 |
| PEPTIDE1{[ac].I.N.L.K.A.L.A.A.L.A.K.K.I.L.[am]}$$$$V2.0 | 13.16 |
| PEPTIDE1{[ac].I.N.L.K.A.L.A.A.L.[S5].K.K.I.[S5].[am]}$PEPTIDE1,PEPTIDE1,11:R3-15:R3$$$V2.0 | 13.37 |

Same assay, conditions: whole synthesis, scale of the general procedure 735 mg resin, hydrocarbon staple, sequence written open

| Substance | isolated yield [%] |
| --- | --- |
| Cys-Ly s (N3)-MP9-MMP2-aPD-L1 | 5.18 |
| FITC-Cys-MP9-MMP-2-aPD-L1 | 2.89 |
| FITC-Cys-MP9 | 12.80 |
| Cys-Ly s (N3)-MP9 | 20.69 |
| Cys-MP9-MMP-2-aPD-L1 | 11.08 |

Strings that start with PEPTIDE1 are HELM notation: dots part the residues, brackets hold end groups and non-standard residues.
